Two substances from article PMC3501466 can be followed below.

Sequences of proteins named here, by UniProt entry; tags and fusion partners are left off. A change or cut given only in a name is not applied to a line headed by its entry.
UniProt Q6ZSZ5: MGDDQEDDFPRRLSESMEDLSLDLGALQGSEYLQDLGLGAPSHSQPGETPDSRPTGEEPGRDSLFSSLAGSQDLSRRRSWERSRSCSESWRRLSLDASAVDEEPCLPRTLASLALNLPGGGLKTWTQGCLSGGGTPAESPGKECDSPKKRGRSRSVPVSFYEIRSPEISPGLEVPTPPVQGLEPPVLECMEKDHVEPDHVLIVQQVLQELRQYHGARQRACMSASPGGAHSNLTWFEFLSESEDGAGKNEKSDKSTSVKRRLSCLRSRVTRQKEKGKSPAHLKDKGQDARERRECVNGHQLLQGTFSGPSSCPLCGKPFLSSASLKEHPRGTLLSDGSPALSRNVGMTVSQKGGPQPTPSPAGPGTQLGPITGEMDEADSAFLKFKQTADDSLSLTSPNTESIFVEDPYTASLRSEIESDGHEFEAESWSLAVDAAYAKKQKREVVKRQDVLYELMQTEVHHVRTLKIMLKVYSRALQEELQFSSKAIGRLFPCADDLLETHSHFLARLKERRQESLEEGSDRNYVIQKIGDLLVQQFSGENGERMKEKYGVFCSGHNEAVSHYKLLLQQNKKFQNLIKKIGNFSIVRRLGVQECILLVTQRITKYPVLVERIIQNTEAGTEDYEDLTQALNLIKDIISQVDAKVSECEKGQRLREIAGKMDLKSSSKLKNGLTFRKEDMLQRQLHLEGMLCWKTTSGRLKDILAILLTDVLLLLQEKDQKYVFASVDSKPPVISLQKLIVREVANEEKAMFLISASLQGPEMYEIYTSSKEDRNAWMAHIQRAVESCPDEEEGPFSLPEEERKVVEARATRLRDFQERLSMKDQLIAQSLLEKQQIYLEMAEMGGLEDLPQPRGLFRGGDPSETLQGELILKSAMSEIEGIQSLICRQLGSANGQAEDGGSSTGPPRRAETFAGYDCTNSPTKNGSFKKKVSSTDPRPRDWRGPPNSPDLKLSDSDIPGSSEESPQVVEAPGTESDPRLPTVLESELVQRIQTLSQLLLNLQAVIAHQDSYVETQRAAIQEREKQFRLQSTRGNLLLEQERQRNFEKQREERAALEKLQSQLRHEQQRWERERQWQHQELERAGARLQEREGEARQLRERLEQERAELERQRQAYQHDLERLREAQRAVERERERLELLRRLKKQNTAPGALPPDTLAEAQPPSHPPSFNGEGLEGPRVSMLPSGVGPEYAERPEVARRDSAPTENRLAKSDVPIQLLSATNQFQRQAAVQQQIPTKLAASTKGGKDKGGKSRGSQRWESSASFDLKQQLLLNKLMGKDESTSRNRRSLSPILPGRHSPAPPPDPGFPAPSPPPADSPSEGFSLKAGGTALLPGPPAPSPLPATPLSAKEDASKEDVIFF
UniProt O75116: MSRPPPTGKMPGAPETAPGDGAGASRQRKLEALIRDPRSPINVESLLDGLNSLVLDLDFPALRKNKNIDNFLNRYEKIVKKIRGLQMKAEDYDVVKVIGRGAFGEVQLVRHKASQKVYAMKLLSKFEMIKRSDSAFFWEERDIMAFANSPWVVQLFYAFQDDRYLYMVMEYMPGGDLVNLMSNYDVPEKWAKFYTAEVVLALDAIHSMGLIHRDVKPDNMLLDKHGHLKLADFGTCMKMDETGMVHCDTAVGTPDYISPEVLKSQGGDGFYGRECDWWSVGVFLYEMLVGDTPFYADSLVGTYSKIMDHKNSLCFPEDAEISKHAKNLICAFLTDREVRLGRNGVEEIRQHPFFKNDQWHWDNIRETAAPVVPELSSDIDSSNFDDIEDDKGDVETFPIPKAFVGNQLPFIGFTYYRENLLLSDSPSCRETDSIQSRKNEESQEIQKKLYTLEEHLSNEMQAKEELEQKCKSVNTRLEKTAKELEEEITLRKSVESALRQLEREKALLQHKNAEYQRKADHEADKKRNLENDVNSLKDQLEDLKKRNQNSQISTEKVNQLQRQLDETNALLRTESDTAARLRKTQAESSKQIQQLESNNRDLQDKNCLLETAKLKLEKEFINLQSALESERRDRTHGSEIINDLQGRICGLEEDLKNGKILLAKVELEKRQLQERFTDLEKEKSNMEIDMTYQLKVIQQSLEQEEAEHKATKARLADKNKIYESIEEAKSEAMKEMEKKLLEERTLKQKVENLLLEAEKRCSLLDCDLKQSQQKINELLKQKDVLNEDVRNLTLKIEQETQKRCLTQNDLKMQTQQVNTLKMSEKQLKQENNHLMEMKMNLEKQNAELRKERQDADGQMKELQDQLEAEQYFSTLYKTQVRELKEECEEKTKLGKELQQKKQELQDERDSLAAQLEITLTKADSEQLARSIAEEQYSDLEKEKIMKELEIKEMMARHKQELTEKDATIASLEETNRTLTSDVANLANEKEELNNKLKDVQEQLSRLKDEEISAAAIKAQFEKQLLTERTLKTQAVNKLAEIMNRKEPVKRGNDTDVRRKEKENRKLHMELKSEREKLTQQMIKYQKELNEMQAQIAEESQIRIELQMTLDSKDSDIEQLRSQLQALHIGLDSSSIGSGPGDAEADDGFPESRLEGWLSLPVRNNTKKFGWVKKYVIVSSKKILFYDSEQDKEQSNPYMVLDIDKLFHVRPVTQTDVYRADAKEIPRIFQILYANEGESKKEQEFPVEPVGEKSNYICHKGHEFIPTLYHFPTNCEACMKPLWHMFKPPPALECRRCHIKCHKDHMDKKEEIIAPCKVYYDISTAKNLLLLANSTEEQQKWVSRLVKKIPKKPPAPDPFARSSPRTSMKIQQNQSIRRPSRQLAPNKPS
UniProt P35579: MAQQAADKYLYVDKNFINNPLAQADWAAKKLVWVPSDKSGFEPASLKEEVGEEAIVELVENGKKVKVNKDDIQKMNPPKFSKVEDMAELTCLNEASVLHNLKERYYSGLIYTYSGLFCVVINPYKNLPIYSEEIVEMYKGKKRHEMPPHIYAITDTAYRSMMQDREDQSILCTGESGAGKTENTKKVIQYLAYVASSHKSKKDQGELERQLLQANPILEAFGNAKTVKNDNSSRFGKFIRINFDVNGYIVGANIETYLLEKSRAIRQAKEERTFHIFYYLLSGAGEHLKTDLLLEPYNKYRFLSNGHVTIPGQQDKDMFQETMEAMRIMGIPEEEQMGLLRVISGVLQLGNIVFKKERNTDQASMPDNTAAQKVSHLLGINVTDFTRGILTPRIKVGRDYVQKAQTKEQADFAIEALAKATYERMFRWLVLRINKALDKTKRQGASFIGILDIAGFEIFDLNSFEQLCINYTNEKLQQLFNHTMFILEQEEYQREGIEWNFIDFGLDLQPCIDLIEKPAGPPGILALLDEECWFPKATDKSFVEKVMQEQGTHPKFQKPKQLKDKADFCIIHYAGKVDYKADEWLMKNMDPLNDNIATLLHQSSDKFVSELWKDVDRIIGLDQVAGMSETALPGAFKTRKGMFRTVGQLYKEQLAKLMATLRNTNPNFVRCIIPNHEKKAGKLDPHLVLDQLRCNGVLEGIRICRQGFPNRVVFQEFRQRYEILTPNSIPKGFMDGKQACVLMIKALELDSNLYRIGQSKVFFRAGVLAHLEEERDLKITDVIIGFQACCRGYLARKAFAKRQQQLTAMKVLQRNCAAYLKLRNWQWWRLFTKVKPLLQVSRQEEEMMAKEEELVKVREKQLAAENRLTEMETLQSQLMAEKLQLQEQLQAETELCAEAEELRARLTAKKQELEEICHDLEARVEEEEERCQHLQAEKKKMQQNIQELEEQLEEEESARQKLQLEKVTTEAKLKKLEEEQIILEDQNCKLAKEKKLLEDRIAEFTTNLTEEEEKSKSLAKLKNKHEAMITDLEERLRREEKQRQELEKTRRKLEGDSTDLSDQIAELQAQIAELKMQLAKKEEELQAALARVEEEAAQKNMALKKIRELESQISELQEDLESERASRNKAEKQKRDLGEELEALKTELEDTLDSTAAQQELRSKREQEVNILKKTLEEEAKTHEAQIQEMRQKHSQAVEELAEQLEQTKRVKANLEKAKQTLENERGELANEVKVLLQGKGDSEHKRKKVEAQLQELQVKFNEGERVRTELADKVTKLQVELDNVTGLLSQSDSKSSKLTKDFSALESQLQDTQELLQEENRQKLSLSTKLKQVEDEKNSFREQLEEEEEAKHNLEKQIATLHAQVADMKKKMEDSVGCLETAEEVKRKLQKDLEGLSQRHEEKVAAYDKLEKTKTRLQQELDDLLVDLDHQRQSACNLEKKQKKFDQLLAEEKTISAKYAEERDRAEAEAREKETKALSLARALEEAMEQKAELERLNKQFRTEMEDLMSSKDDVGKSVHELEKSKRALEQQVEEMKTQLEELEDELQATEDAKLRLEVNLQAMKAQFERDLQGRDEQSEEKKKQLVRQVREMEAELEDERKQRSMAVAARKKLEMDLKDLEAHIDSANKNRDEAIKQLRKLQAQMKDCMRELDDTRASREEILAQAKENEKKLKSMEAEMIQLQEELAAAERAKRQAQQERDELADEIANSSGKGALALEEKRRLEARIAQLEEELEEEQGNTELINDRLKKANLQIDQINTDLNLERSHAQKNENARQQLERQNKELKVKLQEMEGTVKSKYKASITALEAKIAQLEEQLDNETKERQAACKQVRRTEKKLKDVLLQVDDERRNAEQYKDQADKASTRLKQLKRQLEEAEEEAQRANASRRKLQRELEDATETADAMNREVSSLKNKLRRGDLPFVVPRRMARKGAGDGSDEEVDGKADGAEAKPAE

Results are given in words; binding and its absence hold for the method and conditions named. In cells and extracts the contact can be indirect. A result given as binding can be weak or reduced; the word gives no strength.

For assay [1], the target named is p114RhoGEF (human (endogenous in HCE and MDA-MB-231)) (UniProt Q6ZSZ5). Kind of assay: co-IP; endogenous p114RhoGEF immunoprecipitated from MDA-MB-231 cell extracts; precipitates immunoblotted for the GEF, myosin IIA and ROCKII. For orientation: In western blotting, separated proteins are transferred to a membrane and probed.
For assay [2] the target is unchanged. Kind of assay: co-IP; endogenous p114RhoGEF immunoprecipitated from extracts of confluent, stabilised HCE monolayers, either extracted directly or wounded with multiple needle scratches and re-incubated for 45 minutes; precipitates immunoblotted for the GEF and myosin IIA.

“ROCKII (from UniProt O75116 1-1388) (enzyme)”: in assay [1], the binding entry is “binds”.

Turning to “non-muscle myosin IIA (from UniProt P35579 1-1960)”, the binding entry in assay [1] and in assay [2] was “binds” in each case.
